This note sets out measurements from article PMC8068195.

By UniProt entry, the sequences of proteins in these tests, tags left out. Where a name states a change or a piece, a line headed by the entry shows the natural chain unless it says otherwise. Chains listed by the source or under a name are the forms on record and can include a tag or linker.
Myc-TCF4 C-terminal domain (a.a 501-671) (P15884, form named): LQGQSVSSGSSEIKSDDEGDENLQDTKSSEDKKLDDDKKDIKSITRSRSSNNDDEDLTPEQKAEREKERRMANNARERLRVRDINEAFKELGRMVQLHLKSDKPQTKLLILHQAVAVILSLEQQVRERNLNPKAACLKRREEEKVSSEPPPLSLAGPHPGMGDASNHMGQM
recombinant TCF4 protein (P15884, form named): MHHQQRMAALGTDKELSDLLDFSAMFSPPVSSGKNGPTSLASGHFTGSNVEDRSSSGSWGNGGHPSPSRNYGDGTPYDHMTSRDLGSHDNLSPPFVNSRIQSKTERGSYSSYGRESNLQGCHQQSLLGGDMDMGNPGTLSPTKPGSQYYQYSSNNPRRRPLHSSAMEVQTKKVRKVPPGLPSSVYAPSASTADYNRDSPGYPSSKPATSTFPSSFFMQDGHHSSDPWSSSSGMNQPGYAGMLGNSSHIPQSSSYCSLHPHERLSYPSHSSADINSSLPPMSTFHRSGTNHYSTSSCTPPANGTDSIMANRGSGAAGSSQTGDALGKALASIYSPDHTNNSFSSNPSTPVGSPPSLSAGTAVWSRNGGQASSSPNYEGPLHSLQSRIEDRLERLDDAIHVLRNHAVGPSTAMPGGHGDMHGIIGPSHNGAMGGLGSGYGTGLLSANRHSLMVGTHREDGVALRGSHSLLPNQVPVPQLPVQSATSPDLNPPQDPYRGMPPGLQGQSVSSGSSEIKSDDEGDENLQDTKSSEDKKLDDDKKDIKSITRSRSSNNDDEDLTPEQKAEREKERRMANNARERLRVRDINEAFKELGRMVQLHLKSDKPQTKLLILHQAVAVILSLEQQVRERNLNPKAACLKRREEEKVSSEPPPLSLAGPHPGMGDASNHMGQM

No constants are given. Whether binding was seen depends on the method and setting. For part of these data: Binding seen in cells or lysates may run through a third protein. Some entries that bind do so weakly or less than the wild type.

Assay [1] concerns the target Myc-TCF4 C-terminal domain (a.a 501-671) (UniProt P15884). The assay can be described thus: co-IP; HEK293T transiently transfected, 24 h; lysis in 1% CHAPS, 150 mM NaCl; anti-Flag, anti-ID1, anti-TCF4 or anti-Myc with protein A/G agarose beads, 24 h at 4 °C; washed three times with 200 mM NaCl; Western blot. Background: In western blotting, separated proteins are transferred to a membrane and probed.

Assay [2] has as its target Myc-tagged TCF4 (transcription factor 4), full length (UniProt P15884). The description is as above.
The next assay has as its target recombinant TCF4 protein (UniProt P15884). Nature of the assay: co-IP; in vitro, recombinant TCF4, TWIST1 and ID1; precipitated with anti-TCF4 or anti-IgG antibodies; Western blot; both purified.

B1: ID1 (inhibitor of DNA binding 1), ectopically expressed (protein, UniProt P41134 1-155)
chain: MKVASGSTATAAAGPSCALKAGKTASGAGEVVRCLSEQSVAISRCAGGAGARLPALLDEQQVNVLLYDMNGCYSRLKELVPTLPQNRKVSKVEILQHVIDYIRDLQLELNSESEVGTPGGRGLPVRAPLSTLNGEISALTAEAACVPADDRILCR
For the molecule B1, the binding entry in assay [1] and in assay [2] was “binds” throughout.

B2: recombinant ID1 protein (protein, UniProt P41134 1-155)
chain: MKVASGSTATAAAGPSCALKAGKTASGAGEVVRCLSEQSVAISRCAGGAGARLPALLDEQQVNVLLYDMNGCYSRLKELVPTLPQNRKVSKVEILQHVIDYIRDLQLELNSESEVGTPGGRGLPVRAPLSTLNGEISALTAEAACVPADDRILCR
Consider B2, for which, in the assay with recombinant TCF4 protein, the binding entry is “binds”.
